According to patent publication US6569833B1, “Cyclin dependent kinase binding peptides” (Cyclacel Limited, priority 1995, dated 2003):
These are yes or no findings as the source states them, for the method shown. In cells and extracts the contact can be indirect. Some entries that bind do so weakly or less than the wild type.

Amino acid sequences for entries named in this document (tags omitted).
UniProt P11802: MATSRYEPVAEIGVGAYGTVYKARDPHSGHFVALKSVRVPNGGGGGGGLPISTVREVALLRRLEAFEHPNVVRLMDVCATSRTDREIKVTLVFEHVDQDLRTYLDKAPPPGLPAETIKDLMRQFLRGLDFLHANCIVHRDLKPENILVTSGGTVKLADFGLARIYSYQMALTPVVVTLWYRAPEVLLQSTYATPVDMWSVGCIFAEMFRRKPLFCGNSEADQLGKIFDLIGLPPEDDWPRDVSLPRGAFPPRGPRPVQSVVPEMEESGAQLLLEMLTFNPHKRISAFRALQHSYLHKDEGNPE
UniProt Q00534: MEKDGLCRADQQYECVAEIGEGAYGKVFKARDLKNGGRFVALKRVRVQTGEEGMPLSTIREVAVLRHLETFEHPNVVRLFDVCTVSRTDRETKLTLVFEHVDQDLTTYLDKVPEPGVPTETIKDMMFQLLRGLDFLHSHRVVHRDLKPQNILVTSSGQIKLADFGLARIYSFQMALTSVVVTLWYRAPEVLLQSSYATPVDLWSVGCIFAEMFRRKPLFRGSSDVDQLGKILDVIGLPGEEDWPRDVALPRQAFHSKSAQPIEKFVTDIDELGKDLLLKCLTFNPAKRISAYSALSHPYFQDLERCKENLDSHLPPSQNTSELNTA

How the values were obtained:
cdk4 [1] = molecular target: T1, cdk4 (human, UniProt P11802 1-303); assay: alanine substitution series, pull-down
cdk6 [2] = molecular target: T2, cdk6 (Homo sapiens, UniProt Q00534); assay: alanine substitution series, pull-down
cdk4 [3] = molecular target: T1, cdk4; assay: alanine substitution series, pull-down of 35S-labelled kinase
cdk6 [4] = molecular target: T2, cdk6; assay: as above
cdk4 [5] = molecular target: T1, cdk4; assay: alanine substitution series, pull-down of in vitro translated kinase
cdk6 [6] = molecular target: T2, cdk6; assay: as above
cdk4 [7] = molecular target: T1, cdk4; assay: biotinylated peptide pull-down of 35S-labelled kinase
cdk6 [8] = molecular target: T2, cdk6; assay: as above
cdk4 [9] = molecular target: T1, cdk4; assay: deletion series, biotinylated peptide pull-down of 35S-labelled kinase
cdk6 [10] = molecular target: T2, cdk6; assay: as above

binding (cdk4 [7])	binding (cdk6 [8])	binding (cdk4 [9])	binding (cdk6 [10])	Binder	also measured
		binds	binds	SGSGEGFLDTLVVLHRAGAR (biotin coupled to the N-terminus of the Ser-Gly-Ser-Gly linker) [peptide 7 of FIGS. 5A-C (16 aa p16 fragment)]	
		binds	binds	SGSGFLDTLVVLHR (biotin coupled to the N-terminus of the Ser-Gly-Ser-Gly linker) [peptide 10 of FIGS. 5A-C (10 aa p16 fragment, minimal binding peptide)]	

Second part, the binder before the results:

Binder	binding (cdk4 [7])	binding (cdk6 [8])	binding (cdk4 [9])	binding (cdk6 [10])	also measured
SGSGDAAREGFLATLVVLHRAGAR (biotin coupled to the N-terminus of the SGSG linker) [peptide 6 with aspartic acid 92 substituted by alanine]					binding (cdk4 [1]): binds; binding (cdk6 [2]): binds; binding (cdk4 [3]): binds; binding (cdk6 [4]): binds; binding (cdk4 [5]): binds; binding (cdk6 [6]): binds
SGSGDAARAGFLDTLQTLLEFQAD (biotin coupled to the N-terminus of the Ser-Gly-Ser-Gly linker) [p18 peptide corresponding to the 84-103 region of p16]	binds	binds			
SGSGDAAREGFLDTLVVLHGSGAR (biotin coupled to the N-terminus of the Ser-Gly-Ser-Gly linker) [mouse p16 peptide corresponding to the 84-103 region of p16]	binds	binds			
